Laboratory results published in article PMC7800377.
These are yes or no findings as the source states them, for the method shown. Some binding calls cover weakened binding; strength is not graded here. Tags and fused reporters may be left off the sequences shown.

The chains behind the UniProt entries cited, without tags or fusion partners. Residues count along the entry.
UniProt Q9UH99, residues 522-717: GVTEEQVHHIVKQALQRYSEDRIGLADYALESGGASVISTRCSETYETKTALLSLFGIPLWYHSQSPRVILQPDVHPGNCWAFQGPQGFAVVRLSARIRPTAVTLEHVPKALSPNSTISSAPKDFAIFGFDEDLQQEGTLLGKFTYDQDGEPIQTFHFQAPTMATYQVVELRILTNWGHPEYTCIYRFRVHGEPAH

Target: GCN4-SUN2 (His6-GCN4 fusion of the SUN domain of human SUN2, residues 522–717), wild-type (human) (UniProt Q9UH99)
Test: SEC; GCN4-SUN and MBP-KASH co-expressed, purified by amylose affinity and ion exchange, whole elution pooled and run on analytical gel filtration (Superdex 200 Increase 10/300 GL) in 20 mM Tris pH 8.0, 150 mM KCl, 2 mM DTT; fractions by SDS-PAGE; both purified

Row | binding | Binder
1 | binds | ASGGPCCSHARIPRTPYLVLSYVNGLPPV (domain or fragment, UniProt Q8N205 376-404) [MBP-KASH4 (His6-MBP fusion of the KASH domain of human Nesprin-4, residues 376–404)]
2 | binds | GPSPPPTWPHLQLCYLQPPPV (domain or fragment, UniProt Q8N6L0 542-562) [MBP-KASH5 (His6-MBP fusion of the KASH domain of human KASH5, residues 542–562)]
